# Assay results: the supplement of paper PMC8728848
# The other results are listed elsewhere or left out.
# B1: SHCBP1-GST (Homo sapiens), Q8NEM2 (protein)
# chain: MADGSLTGGGLEAAAMAPERMGWAVEQELASLEKGLFQDEDSCSDCSYRDKPGSSLQSFMPEGKTFFPEIFQTNQLLFYERFRAYQDYILADCKASEVQEFTAEFLEKVLEPSGWRAVWHTNVFKVLVEITDVDFAALKAVVRLAEPYLCDSQVSTFTMECMKELLDLKEHRLPLQELWVVFDDSGVFDQTALAIEHVRFFYQNIWRSWDEEEEDEYDYFVRCVEPRLRLHYDILEDRVPSGLIVDYHNLLSQCEESYRKFLNLRSSLSNCNSDSEQENISMVEGLKLYSEMEQLKQKLKLIENPLLRYVFGYQKNSNIQAKGVRSSGQKITHVVSSTMMAGLLRSLLTDRLCQEPGEEEREIQFHSDPLSAINACFEGDTVIVCPGHYVVHGTFSIADSIELEGYGLPDDIVIEKRGKGDTFVDCTGADIKISGIKFVQHDAVEGILIVHRGKTTLENCVLQCETTGVTVRTSAEFLMKNSDLYGAKGAGIEIYPGSQCTLSDNGIHHCKEGILIKDFLDEHYDIPKISMVNNIIHNNEGYGVVLVKPTIFSDLQENAEDGTEENKALKIQTSGEPDVAERVDLEELIECATGKMELCARTDPSEQVEGNCEIVNELIAASTQKGQIKKKRLSELGITQADDNLMSQEMFVGIVGNQFKWNGKGSFGTFLF
# What was measured:
# Test in all cases: glycan array binding signal (z-score within array); higher = stronger binding
# Conditions in all cases: glycan notation: IUPAC condensed, linker removed
# [1] = target: Fuc(a1-2)[Gal(a1-3)]Gal(b1-4)GlcNAc(b1-2)Man(a1-3)[Fuc(a1-2)[Gal(a1-3)]Gal(b1-4)GlcNAc(b1-2)Man(a1-6)]Man(b1-4)GlcNAc(b1-4)GlcNAc
# Outline: (§1)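 The binding signal is a Z-score computed within each array and averaged over linkers. Arrays of the same protein sequence at different concentrations or buffers were also averaged together. Data originate from 3228 arrays in the Consortium for Functional Glycomics database, kept only where the protein sequence was available.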
# [2] = target: Fuc(a1-2)[Gal(a1-3)]Gal(b1-4)GlcNAc(b1-2)Man(a1-3)[Fuc(a1-2)[Gal(a1-3)]Gal(b1-4)GlcNAc(b1-2)Man(a1-6)]Man(b1-4)GlcNAc(b1-4)[Fuc(a1-6)]GlcNAc
# Outline: as §1
# [3] = target: Fuc(a1-2)[Gal(a1-3)]Gal(b1-4)GlcNAc(b1-3)GalNAc
# Outline: as §1
# [4] = target: Fuc(a1-2)[Gal(a1-3)]Gal(b1-4)GlcNAc(b1-3)[Fuc(a1-2)[Gal(a1-3)]Gal(b1-4)GlcNAc(b1-6)]GalNAc
# Outline: as §1
# [5] = target: Fuc(a1-2)[Gal(a1-3)]Gal(b1-4)GlcNAc(b1-6)GalNAc
# Outline: as §1
# [6] = target: Fuc(a1-2)[Gal(a1-3)]Gal(b1-4)[Fuc(a1-3)]Glc
# Outline: as §1
# [7] = target: Fuc(a1-2)[Gal(a1-3)]Gal(b1-4)[Fuc(a1-3)]GlcNAc
# Outline: as §1
# [8] = target: Fuc(a1-2)[Gal(a1-3)]Gal(b1-4)[Fuc(a1-3)]GlcNAc(b1-3)GalNAc
# Outline: as §1
# [9] = target: Fuc(a1-2)[Gal(a1-4)]Gal(b1-4)GlcNAc
# Outline: as §1
# [10] = target: Fuc(a1-2)[GalNAc(a1-3)]Gal
# Outline: as §1
# [11] = target: Fuc(a1-2)[GalNAc(a1-3)]Gal(b1-3)GalNAc(a1-3)[Fuc(a1-2)]Gal(b1-4)GlcNAc
# Outline: as §1
# [12] = target: Fuc(a1-2)[GalNAc(a1-3)]Gal(b1-3)GalNAc(b1-3)Gal(a1-4)Gal(b1-4)Glc
# Outline: as §1
# [13] = target: Fuc(a1-2)[GalNAc(a1-3)]Gal(b1-3)GlcNAc
# Outline: as §1
# [14] = target: Fuc(a1-2)[GalNAc(a1-3)]Gal(b1-3)GlcNAc(b1-2)Man(a1-3)[Fuc(a1-2)[GalNAc(a1-3)]Gal(b1-3)GlcNAc(b1-2)Man(a1-6)]Man(b1-4)GlcNAc(b1-4)GlcNAc
# Outline: as §1
# [15] = target: Fuc(a1-2)[GalNAc(a1-3)]Gal(b1-3)GlcNAc(b1-2)Man(a1-3)[Fuc(a1-2)[GalNAc(a1-3)]Gal(b1-3)GlcNAc(b1-2)Man(a1-6)]Man(b1-4)GlcNAc(b1-4)[Fuc(a1-6)]GlcNAc
# Outline: as §1
# [16] = target: Fuc(a1-2)[GalNAc(a1-3)]Gal(b1-3)GlcNAc(b1-3)GalNAc
# Outline: as §1
# [17] = target: Fuc(a1-2)[GalNAc(a1-3)]Gal(b1-3)GlcNAc(b1-6)GalNAc
# Outline: as §1
# [18] = target: Fuc(a1-2)[GalNAc(a1-3)]Gal(b1-4)Glc
# Outline: as §1
# [19] = target: Fuc(a1-2)[GalNAc(a1-3)]Gal(b1-4)GlcNAc
# Outline: as §1
# [20] = target: Fuc(a1-2)[GalNAc(a1-3)]Gal(b1-4)GlcNAc(b1-2)Man
# Outline: as §1
# [21] = target: Fuc(a1-2)[GalNAc(a1-3)]Gal(b1-4)GlcNAc(b1-2)Man(a1-3)[Fuc(a1-2)[GalNAc(a1-3)]Gal(b1-4)GlcNAc(b1-2)Man(a1-6)]Man(b1-4)GlcNAc(b1-4)GlcNAc
# Outline: as §1
# [22] = target: Fuc(a1-2)[GalNAc(a1-3)]Gal(b1-4)GlcNAc(b1-2)Man(a1-3)[Fuc(a1-2)[GalNAc(a1-3)]Gal(b1-4)GlcNAc(b1-2)Man(a1-6)]Man(b1-4)GlcNAc(b1-4)[Fuc(a1-6)]GlcNAc
# Outline: as §1
# [23] = target: Fuc(a1-2)[GalNAc(a1-3)]Gal(b1-4)GlcNAc(b1-3)Gal(b1-4)GlcNAc
# Outline: as §1
# [24] = target: Fuc(a1-2)[GalNAc(a1-3)]Gal(b1-4)GlcNAc(b1-3)Gal(b1-4)GlcNAc(b1-3)Gal(b1-4)GlcNAc
# Outline: as §1
# [25] = target: Fuc(a1-2)[GalNAc(a1-3)]Gal(b1-4)GlcNAc(b1-3)GalNAc
# Outline: as §1
# [26] = target: Fuc(a1-2)[GalNAc(a1-3)]Gal(b1-4)GlcNAc(b1-3)[Fuc(a1-2)[GalNAc(a1-3)]Gal(b1-4)GlcNAc(b1-6)]GalNAc
# Outline: as §1
# [27] = target: Fuc(a1-2)[GalNAc(a1-3)]Gal(b1-4)GlcNAc(b1-6)GalNAc
# Outline: as §1
# [28] = target: Fuc(a1-2)[GalNAc(a1-3)]Gal(b1-4)[Fuc(a1-3)]GlcNAc
# Outline: as §1
# [29] = target: Fuc(a1-2)[GalNAc(a1-3)]Gal(b1-4)[Fuc(a1-3)]GlcNAc(b1-3)GalNAc
# Outline: as §1
# [30] = target: Fuc(a1-2)[GalNAc(a1-4)]Gal(b1-4)GlcNAc
# Outline: as §1
binder,measurement,setting,value
B1,glycan array binding signal (z-score),[1],0.255
same,glycan array binding signal (z-score),[2],-1.18
same,glycan array binding signal (z-score),[3],0.533
same,glycan array binding signal (z-score),[4],-0.22
same,glycan array binding signal (z-score),[5],0.568
same,glycan array binding signal (z-score),[6],-0.299
same,glycan array binding signal (z-score),[7],0.298
same,glycan array binding signal (z-score),[8],-0.227
same,glycan array binding signal (z-score),[9],-0.369
same,glycan array binding signal (z-score),[10],-0.748
same,glycan array binding signal (z-score),[11],-0.425
same,glycan array binding signal (z-score),[12],0.789
same,glycan array binding signal (z-score),[13],-0.199
same,glycan array binding signal (z-score),[14],-0.355
same,glycan array binding signal (z-score),[15],1.07
same,glycan array binding signal (z-score),[16],0.472
same,glycan array binding signal (z-score),[17],-0.883
same,glycan array binding signal (z-score),[18],-1.04
same,glycan array binding signal (z-score),[19],-0.701
same,glycan array binding signal (z-score),[20],0.004
same,glycan array binding signal (z-score),[21],0.13
same,glycan array binding signal (z-score),[22],-0.058
same,glycan array binding signal (z-score),[23],0.165
same,glycan array binding signal (z-score),[24],0.425
same,glycan array binding signal (z-score),[25],0.204
same,glycan array binding signal (z-score),[26],-0.947
same,glycan array binding signal (z-score),[27],-0.21
same,glycan array binding signal (z-score),[28],0.76
same,glycan array binding signal (z-score),[29],1.16
same,glycan array binding signal (z-score),[30],-0.194

# Given with bars between the fields: entries from further up
binder | measurement | setting | value
B1 | glycan array binding signal (z-score) | [2] | -1.18
same | glycan array binding signal (z-score) | [29] | 1.16
